These are yes or no findings as the source states them, for the method shown. In cells and extracts the contact can be indirect. Some entries that bind do so weakly or less than the wild type. Sequences can lack the tags named with a protein.

This note sets out measurements from article PMC10606595.

Test [1] concerns the target T1, PA-Atg10[∆111-167] (S. cerevisiae) (UniProt Q07879).
T1 sequence: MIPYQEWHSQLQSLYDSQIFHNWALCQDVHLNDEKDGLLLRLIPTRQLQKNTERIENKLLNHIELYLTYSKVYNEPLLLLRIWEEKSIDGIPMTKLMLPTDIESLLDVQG
Nature of the test: co-IP; affinity isolation from lysates of atg7∆ atg10∆ atg12∆ yeast cells (no Atg7, proteins unconjugated) overexpressing PA-Atg10 variants and His6-Atg12 variants (CUP1 promoter); PA-Atg10 as bait (methods: IgG Sepharose 6 Fast Flow), 2 h at 4 °C; PBS pH 7.4, 0.2 M sorbitol, 1 mM MgCl2, 0.1% or 0.5% Triton X-100; western blot. On the technique in general: In western blotting, separated proteins are transferred to a membrane and probed.

Test [2] concerns the target T2, PA-Atg7[∆295-600] (S. cerevisiae) (UniProt P38862).
T2 sequence: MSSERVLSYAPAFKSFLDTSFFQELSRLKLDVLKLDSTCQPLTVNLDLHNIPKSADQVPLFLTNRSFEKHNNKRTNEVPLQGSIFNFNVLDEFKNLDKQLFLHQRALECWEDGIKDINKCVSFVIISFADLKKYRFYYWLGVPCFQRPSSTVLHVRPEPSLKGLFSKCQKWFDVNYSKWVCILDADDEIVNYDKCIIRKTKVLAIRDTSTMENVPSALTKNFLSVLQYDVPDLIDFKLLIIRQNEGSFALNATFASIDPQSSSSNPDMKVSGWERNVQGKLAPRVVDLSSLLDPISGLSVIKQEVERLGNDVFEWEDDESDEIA
Kind of test: co-IP; affinity isolation from lysates of atg7∆ atg12∆ yeast cells expressing PA-Atg7 variants and His6-Atg12 variants (CUP1 promoter); PA-Atg7 as bait (methods: IgG Sepharose 6 Fast Flow), 2 h at 4 °C; PBS pH 7.4, 0.2 M sorbitol, 1 mM MgCl2, 0.1% or 0.5% Triton X-100; western blot with anti-polyhistidine and anti-PAP.

Test [3] has as its target T3, PA-Atg7 (full length, wild type) (S. cerevisiae) (UniProt P38862).
T3 sequence: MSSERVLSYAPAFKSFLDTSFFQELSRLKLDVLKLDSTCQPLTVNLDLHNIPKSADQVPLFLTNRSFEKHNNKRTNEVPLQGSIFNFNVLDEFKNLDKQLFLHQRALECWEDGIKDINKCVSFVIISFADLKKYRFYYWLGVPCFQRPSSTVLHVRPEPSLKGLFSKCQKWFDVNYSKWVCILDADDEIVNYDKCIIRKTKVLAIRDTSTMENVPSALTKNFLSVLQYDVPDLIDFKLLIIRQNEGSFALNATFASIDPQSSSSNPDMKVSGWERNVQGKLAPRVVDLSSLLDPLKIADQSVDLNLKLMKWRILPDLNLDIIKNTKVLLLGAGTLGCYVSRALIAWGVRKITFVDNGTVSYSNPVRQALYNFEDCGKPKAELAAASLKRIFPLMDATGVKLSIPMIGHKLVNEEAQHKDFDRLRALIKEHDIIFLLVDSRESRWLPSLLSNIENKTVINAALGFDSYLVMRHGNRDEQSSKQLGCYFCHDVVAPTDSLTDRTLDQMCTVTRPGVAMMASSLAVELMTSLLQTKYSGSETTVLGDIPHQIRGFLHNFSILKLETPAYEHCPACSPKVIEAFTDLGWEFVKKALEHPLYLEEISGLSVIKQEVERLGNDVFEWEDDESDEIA
The description is as above.

Test [4] has as its target T4, His6-Atg12 (wild type) (S. cerevisiae) (UniProt P38316).
T4 sequence: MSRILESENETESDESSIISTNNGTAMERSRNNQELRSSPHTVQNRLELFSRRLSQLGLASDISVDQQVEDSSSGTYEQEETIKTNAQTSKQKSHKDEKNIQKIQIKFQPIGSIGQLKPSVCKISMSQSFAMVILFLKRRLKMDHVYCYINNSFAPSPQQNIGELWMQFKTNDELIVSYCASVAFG
Nature of the test: pull-down; His6-Atg12 pulled down by TALON metal affinity resin from lysates of atg7∆ atg10∆ atg12∆ yeast cells overexpressing PA-Atg7, PA-Atg10 and His6-Atg12; 2 h at 4 °C; elution with SDS-PAGE buffer and 0.5 M imidazole; western blot with anti-PA or anti-His.

B1: His6-Atg12 (wild type) (protein, UniProt P38316 1-186)
chain: T4 sequence
B1: the binding result in test [1], in test [2] and in test [3] was “binds” each time.

B2: PA-Atg7 (full length, wild type) (enzyme, UniProt P38862 1-630)
chain: T3 sequence
Regarding B2, the binding result in test [4] is given as “binds”.
